# Data taken from PubChem BioAssay AID2685 (National Center for Advancing Translational Sciences (NCATS), 2010).
# Out of some 320,000 compounds screened, about 2,100 (0.66%) were called active. The inconclusive results got no clear call from the source; some entries with a clear call stand among them for comparison. The call rests on the fitted dose curve; in most records, active means well fitted inhibition curve with a large enough effect in the signal ratio, with a control signal flat (not every such curve was filed as active); inconclusive means small, poorly fitted or top-dose-only effect, or effect the other way, or a change in a side signal; inactive means flat fitted curve, though single readings scatter; the % refers to the signal ratio. Potencies beside an inconclusive call are fits to weak or partial responses and may not hold up.
# Test: qHTS Assay for Lipid Storage Modulators in Drosophila S3 Cells
# Details: BODIPY lipid droplet fluorescence, 18-24 h, cells fed with added oleic acid; lipid storage change, negative = inhibition: at 46.1 µM (top of the series) unless noted
# Outline: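 Drosophila S3 cells loaded with oleic acid (400 uM, as added) and compounds at several concentrations; lipid droplets imaged by 488-nm laser-scanning cytometry, 500–530 nm intensity and object ratio to cell channel. Percent activity normalized to 20 uM Triacsin C.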
# On the % scale 0 is the no-effect control and ±100 the full control effect; potency means the concentration at half of the fitted maximal effect.
SMILES,"lipid storage change, negative = inhibition",Potency
Cc1ccc(/C=N/NC(=O)CSc2nc3ccccc3c(=O)n2-c2ccccc2C)s1,inconclusive: 22.3%,
O=C(N/N=C/c1cccnc1)c1cc(O)c(O)c(O)c1,inconclusive: -18.8%,
N#Cc1ccccc1OCC(=O)OCC(=O)NC1CCCCC1,inconclusive: -1.17%,
CCCCCc1ccc(-c2cn(Cc3ccc(C(=O)c4ccccc4)cc3)nn2)cc1,inconclusive: 7.93%,
CCc1ccc(C(=O)Nc2cccnc2Oc2ccc(Cl)cc2)cc1,inconclusive: 4.85%,
CCN(c1ccccc1)S(=O)(=O)c1cc2c(cc1C)N(C)CCO2,,"inconclusive: 20.6 µM [activator, partial curve, poor fit]"
COc1cc2c(cc1OC)C(c1cccc([N+](=O)[O-])c1)N(C(=O)c1ccccc1C(=O)O)CC2 (stereo not given),inconclusive: -32.1% [at 0.369 µM],
N=c1ccn(Cc2ccc([N+](=O)[O-])cc2)cc1,inconclusive: -2.03%,
O=C(NCC1CCCCC1)c1cc([N+](=O)[O-])ccc1N1CCOCC1,inconclusive: 9.55%,
CCOC(=O)c1ccc(NC(=O)CN2C(=O)C(=O)N(CC(C)C)C2=O)cc1,inconclusive: 33.3%,
Cc1onc(-c2ccccc2)c1C(=O)Nc1nnc(COc2ccc(Cl)cc2)s1,inconclusive: 60.5%,
COc1ccc(N2CCN(C(=O)CCNS(=O)(=O)c3ccc(C)cc3)CC2)cc1,,"inconclusive: 0.651 µM [falling, partial curve, poor fit]"
Cc1ccc(NC(=O)CN(C)C(=O)COC(=O)c2ccc(Cl)cc2O)cc1,inconclusive: -0.0658%,
CCCc1nnc(NC(=O)CCC(=O)N2CCN(Cc3ccccc3)CC2)s1,,"inconclusive: 29.1 µM [activator, single point]"
O=C(COC(=O)c1cc(Cl)ccc1[N+](=O)[O-])NCc1ccc(Cl)cc1Cl,,"inconclusive: 29.1 µM [falling, single point]"
CNc1ccccc1-c1nc2ccccc2n(C)c1=O,,"inconclusive: 0.164 µM [activator, full curve, poor fit]"
O=S(=O)(Nc1cccc(-c2cn3c(n2)SCC3)c1)c1ccccc1F,inconclusive: -2.34%,
O=S(=O)(c1ccc(-n2cnnn2)cc1)N1CCNCC1,inconclusive: -14%,
O=C1CC(N2CCN(Cc3ccccc3)CC2)C(=O)N1CCc1ccccc1 (stereo not given),,"inconclusive: 0.731 µM [falling, full curve]"
COc1ccc(OC)c(S(=O)(=O)N2CCC(C(=O)NC3CCCC3)CC2)c1,inconclusive: -36%,
COc1cccc(C(=O)NCCS(=O)(=O)NCc2ccco2)c1,inconclusive: 27.2%,
Cc1nn(-c2ccccc2)c(C)c1NC(=O)COC(=O)c1ccc(Cl)c(N)c1,,"inconclusive: 9.2 µM [activator, partial curve]"
COc1ccccc1N(CC(=O)NCc1ccccc1)C(=O)CCC(=O)Nc1nccs1,,"inconclusive: 29.1 µM [falling, single point]"
O=C(Cn1c(=O)sc2ccccc21)Nc1nc2c(s1)CCCC2,inconclusive: 18.6%,
O=C(Cc1cccs1)NCCSc1c(-c2ccc(Cl)cc2)[nH]c2ccccc12,inconclusive: -12.8%,

SMILES,"lipid storage change, negative = inhibition",Potency
Cc1cc(C)c2oc(=O)cc(CN3CCN(Cc4ccc5c(c4)OCO5)CC3)c2c1,inconclusive: 14%,
O=C(/C=C/c1ccco1)Nc1ccc(S(=O)(=O)N2CCOCC2)cc1,inconclusive: -13.9%,
Cc1ccc(NC(=O)CSc2nnc(Cc3cccn3C)n2-c2ccc(F)cc2)c(C)c1,inconclusive: 64.8%,
CCn1c(NC(=O)Nc2cccc(C)c2C)cc2sccc21,inconclusive: -26.7%,
CCOC(=O)c1cc(C#N)c(N2CCOCC2)nc1-c1ccccc1,inconclusive: 38.3%,
N#Cc1nc(-c2ccc(F)cc2)oc1NCCN1CCOCC1,inconclusive: 35.5%,
CN(C)/C=C/C(=O)C(F)(F)F,inconclusive: 18.4%,
O=C(CSc1ncnc2ccccc12)N1CCCC1,inconclusive: 5.23%,
COC(=O)C(/C=N/O)NC(=O)c1ccccc1 (stereo not given),inconclusive: 12%,
COc1ccc(CNC(=O)COC(=O)c2cc(-c3ccco3)nc3ccccc23)cc1,,"inconclusive: 5.17 µM [activator, partial curve]"
CSCCC(NS(=O)(=O)c1ccc(C)cc1)C(=O)NNC(=O)c1csc(N2CCOCC2)n1 (stereo not given),inconclusive: -17.3%,
O=C1ON=C(c2ccccc2)/C1=C/c1cccnc1,inactive,
Cc1c(Br)c([N+](=O)[O-])nn1CC(=O)Nc1sc2c(c1C(=O)OC(C)C)CCC(C)C2 (stereo not given),inconclusive: 13.8%,
COc1ccccc1OCC(=O)NNC(=O)c1cccs1,,"inconclusive: 5.17 µM [rising, partial curve]"
Cc1sc(NC(=O)C2CSC3(C)CCC(=O)N23)nc1-c1ccc(F)cc1 (stereo not given),,"inconclusive: 22.4 µM [activator, single point]"
Cc1ccc(NC2CCCCC2NS(=O)(=O)c2ccc(Cl)cc2)cc1 (stereo not given),inconclusive: 22.5%,
CCN(C(=O)COC(=O)c1cc(S(=O)(=O)N2CCOCC2)c(Cl)cc1Cl)C1CCS(=O)(=O)C1 (stereo not given),inconclusive: 5.45%,
CCN(CC)CCNC(=O)c1cn(C)c2ccc(S(=O)(=O)N(C)C3CCCCC3)cc2c1=O,inconclusive: -3.19%,
O=c1cc(CN2CCN(S(=O)(=O)c3ccccc3)CC2)nc2ccc(Cl)cn12,,"inconclusive: 0.92 µM [activator, partial curve]"
COc1ccc(S(=O)(=O)NCCOc2cccc3cccnc23)cc1OC,,"inconclusive: 16.4 µM [falling, single point]"
CCN(C(=O)COC(=O)CCCN1C(=O)c2cccc3cccc(c23)C1=O)C1CCS(=O)(=O)C1 (stereo not given),inconclusive,
C=C(C)Cn1c(SCCN2CCOCC2)nc2c1c(=O)[nH]c(=O)n2C,inconclusive: 2%,
CCOc1ccc(NC(=O)CN(C)C(=O)c2c(-c3ccccc3Cl)noc2C)cc1OCC,inconclusive: -74.6%,
CCOc1ccc(CN2CCN(S(=O)(=O)c3ccc(NC(C)=O)cc3)CC2)cc1,inconclusive: 19.7%,
CCNC(=O)CN(c1ccc(CC)cc1)S(C)(=O)=O,,"inconclusive: 29.1 µM [falling, single point]"

# Quoted at random: 3 records from the list.
SMILES,"lipid storage change, negative = inhibition",Potency
CCN(C(=O)COC(=O)c1cc(S(=O)(=O)N2CCOCC2)c(Cl)cc1Cl)C1CCS(=O)(=O)C1 (stereo not given),inconclusive: 5.45%,
Cc1c(Br)c([N+](=O)[O-])nn1CC(=O)Nc1sc2c(c1C(=O)OC(C)C)CCC(C)C2 (stereo not given),inconclusive: 13.8%,
CCOc1ccc(NC(=O)CN(C)C(=O)c2c(-c3ccccc3Cl)noc2C)cc1OCC,inconclusive: -74.6%,

# More results.

SMILES,"lipid storage change, negative = inhibition",Potency
CN(Cc1ccccc1)C(=O)COC(=O)c1cncc(Br)c1,,"inconclusive: 29.1 µM [cytotoxic, single point]"
CC1=NNC(=O)/C1=C\c1cn(-c2ccccc2)nc1-c1ccccc1,,"inconclusive: 0.259 µM [cytotoxic, full curve]"
OCCn1ccc(-c2ccccc2OCc2ccc(F)cc2)n1,inconclusive: 15.5%,
Cc1nonc1CN(C)C(=O)c1cc(COc2ccc(F)cc2Cl)on1,,"inconclusive: 0.0052 µM [activator, full curve, poor fit]"
COCc1cc(C)[nH]c(=O)c1C(=O)NC12CC3CC(CC(C3)C1)C2,inconclusive: -54%,
COc1ccc(-c2noc(CN(C(=O)c3ccc4c(c3)OCO4)C(C)C)n2)cc1,,"inconclusive: 0.326 µM [falling, single point]"
CCCOc1cccc(C(=O)NCCCNC(=O)c2ccccn2)c1,,"inconclusive: 29.1 µM [activator, single point]"
O=C(N/N=C/c1cccnc1)c1cccc(F)c1,,"inconclusive: 8.2 µM [activator, partial curve]"
O=C(Nc1ccnc(-c2ccncc2)n1)C1CC1,inconclusive: -5.77%,
Nc1nc(NCc2ccco2)nn1-c1ccccc1,,"inconclusive: 5.8 µM [falling, full curve, poor fit]"
CN(C)CC(C)(C)CNS(=O)(=O)c1cccc(Cl)c1Cl,inconclusive: -34.2%,
CCOc1ccccc1N(C(=O)c1ccccc1Cl)C1=NC(C)(C)CS1,inconclusive: -3.35%,
CC(=O)c1ccc(N2CCN(C(=O)[C@H](C)NC(=O)c3ccccc3Cl)CC2)cc1,,"inconclusive: 25.9 µM [activator, single point]"
CC(=O)Nc1ccc(NC(=S)NC(=O)/C=C/c2ccco2)cc1,,active: 4.61 µM
O=C(COC(=O)C1CCN(S(=O)(=O)c2cccs2)CC1)Nc1ccc(F)c(F)c1F,,"inconclusive: 29.1 µM [activator, single point]"
Cc1sc(NC(=O)c2cccs2)nc1-c1ccccc1,inconclusive: -30.5%,
NC(=O)C1(N2CCCCC2)CCN(C(=O)CSc2nc(C(F)(F)F)cc(=O)[nH]2)CC1,inconclusive: -19.4%,
COc1ccc(/C=C/c2nc(N)nc(-c3ccccc3O)n2)cc1OC,inconclusive: 20.2%,
COc1cc(CNCc2ccc(Br)cc2)cc(OC)c1,inconclusive: -9.42%,
CC1=NN(C(=O)Cc2ccc([N+](=O)[O-])cc2)C(O)(c2ccccc2)C1 (stereo not given),,"inconclusive: 23.1 µM [activator, partial curve]"
CN1CCN(c2ncnc3c2cnn3-c2ccc(Cl)cc2)CC1,inconclusive: 56.4%,
Cc1sc2nc(SCC(=O)N(CCO)CCO)n(C3CCCCC3)c(=O)c2c1C,,"inconclusive: 29.1 µM [falling, single point]"
Cc1ccc(NC(=O)CSc2nc(=O)n(Cc3ccncc3)c3c2CCC3)c(C)c1,,"inconclusive: 29.1 µM [activator, single point]"
CCC(O)(CC)C(=O)NN(C(=O)CCl)c1ccccc1,,active: 20.6 µM
CCCCc1cc(=O)oc2cc(C)cc(OCC(=O)Nc3cccnc3)c12,inconclusive: -42.1%,
